Results: patent US6447748B1, “Benzamide compounds for cancer imaging and therapy” (Research Corporation Technologies, Inc., priority 1993, dated 2002)
Where two headings read alike, the source gives them in different places.

Columns and labels:
[1] = biological target: sigma receptors on breast tissue membranes (biopsied human tumor); conditions: read-out: Ki against 2-[125I]BP; breast tumor biopsy membranes, 1 hr at 37° C.
[2] = biological target: sigma receptors on breast tissue membranes (biopsied human tumor); conditions: read-out: Ki against 4-[125I]BP; breast tumor biopsy membranes, 1 hr at 37° C.

O=C(CCCN1CCC(O)(c2ccc(Cl)cc2)CC1)c1ccc(F)cc1 [Haloperidol]
Ki [1]: 6.3 nM
Ki [2]: 3.8 nM
